Assay results: patent US6329497A, “Sandramycin analogs” (The Scripps Research Institute, priority 1999, dated 2001)
At least one compound was matched to its structure with a doubt left.

Key:
five cell lines = experiment: In vitro cytotoxic activity of key substructure analogs, five cell lines; conditions: range throughout the five cell lines
calf thymus DNA = experiment: DNA binding constants by fluorescence quenching, calf thymus DNA
Method: Apparent absolute DNA binding constants for 1-22 and related agents including luzopeptin A were obtained by measurement of the fluorescence quenching upon titration addition of calf thymus DNA or the deoxyoligonucleotides 5'-d(GCXXGC)2 where XX=AT, TA, GC, and CG. For each agent, the characteristic fluorescence excitation and emission spectra were recorded in 10 mM Tris-HCl, 75 mM NaCl (pH 7.4) buffer, FIG. 6. For the DNA binding assays which quantitate the fluorescence quenching, excitation outside the absorbance range of DNA was employed and the most intense fluorescence emission at a longer wavelength monitored. For assay of the DNA-induced fluorescence quenching of the agents, a 2 mL buffer solution of Tris-HCl (pH 7.4) and 75 mM NaCl was employed. For titration, small aliquots of DNA were added to solutions of the agents in Tris-HCl buffer (pH 7.4).
Despite these precautions, the fluorescence for a number of the analog solutions decreased for several of analogs (11, 14, 17, 21 and 22) and the quality of the binding constants for these should be viewed with caution. […] The titrations were carried out with 15 min time intervals between DNA additions to allow binding equilibration. […] The titration fluorescence quenching was analyzed by Scatchard analysis (Scatchard, G. Ann. N. Y. Acad. Sci. 1949, 51, 660) with the following equation: rb /c=Kb n-Kb rb where rb is the number of agent molecules bound per DNA base-pair, c is the free drug concentration, Kb is the apparent association constant, and n is the number of agent binding sites per base-pair. […]
All fluorescence measurements were conducted on a JASCO FP-777 Spectrofluorometer equipped with a Fisons Haake D8 circulated water cooling system. […] The DNA concentration (320 μM in base-pair) was determined by UV (260 =12824 M^-1 in base-pair). The excitation and emission spectra were recorded with a sample (2 mL) containing 10 mM Tris-HCl (pH 7.4), 75 mM NaCl buffer and 20 μL of a DMSO stock solution of agent with a 10 nm slit width in excitation and emission. […]

[1] = cited from earlier work

SMILES: CC(C)[C@H]1C(=O)OC[C@H](NC(=O)c2nc3ccccc3cc2O)C(=O)N2CCCC[C@@H]2C(=O)NCC(=O)N(C)CC(=O)N(C)[C@H](C(C)C)C(=O)OC[C@@H](NC(=O)c2nc3ccccc3cc2O)C(=O)N2CCCC[C@@H]2C(=O)NCC(=O)N(C)CC(=O)N1C [compound 1, Sandramycin]
- cytotoxic activity IC50 (five cell lines): 6-0.02
- apparent binding constant (calf thymus DNA): 3.4 (10^7 M^-1
- fold more potent than echinomycin [1]: 100-300

SMILES: CC(C)[C@H]1C(=O)OC[C@@H](NS(=O)(=O)CC[Si](C)(C)C)C(=O)N2CCCC[C@H]2C(=O)NCC(=O)N(C)CC(=O)N(C)[C@@H](C(C)C)C(=O)OC[C@@H](NC(=O)c2nc3ccccc3cc2O)C(=O)N2CCCC[C@H]2C(=O)NCC(=O)N(C)CC(=O)N1C [compound 24, N^1 -SES,N^6 -(3-hydroxylquinoline-2-carbonyl) (D-Ser-Pip-Gly-Sar-NMe-Val)2 (Serine Hydroxyl) Dilactone]
- apparent binding constant (calf thymus DNA): 5.7 (10^6 M^-1

SMILES: COc1ccc2nc(C(=O)N[C@@H]3COC(=O)[C@H](C(C)(C)O)N(C)C(=O)CN(C)C(=O)CNC(=O)[C@@H]4[C@@H](OC(C)=O)CC=NN4C(=O)[C@H](NC(=O)c4nc5ccc(OC)cc5cc4O)COC(=O)[C@H](C(C)(C)O)N(C)C(=O)CN(C)C(=O)CNC(=O)[C@@H]4[C@@H](OC(C)=O)CC=NN4C3=O)c(O)cc2c1 [luzopeptin A, reference compound]
- cytotoxic activity IC50 (five cell lines): 6-0.02
- apparent binding constant (calf thymus DNA): 1.2 (10^7 M^-1
- fold more potent than echinomycin [1]: 100-300
